The assay addresses CD147 (mouse (endogenous in thymocytes of C57BL/6 mice)) (UniProt P18572). Description: affinity purification with mass spectrometry; co-IP from mouse thymocyte lysate (IP lysis/wash buffer, Pierce Co-IP Kit) with anti-CD147 antibody; IgG as negative control; eluate on 10% SDS-PAGE, silver stain, trypsin digest, LTQ mass spectrometer; proteins of the IgG group removed; two independent experiments.

By UniProt entry, the sequences of proteins in these tests, tags left out. Where a name states a change or a piece, a line headed by the entry shows the natural chain unless it says otherwise.
UniProt P18572: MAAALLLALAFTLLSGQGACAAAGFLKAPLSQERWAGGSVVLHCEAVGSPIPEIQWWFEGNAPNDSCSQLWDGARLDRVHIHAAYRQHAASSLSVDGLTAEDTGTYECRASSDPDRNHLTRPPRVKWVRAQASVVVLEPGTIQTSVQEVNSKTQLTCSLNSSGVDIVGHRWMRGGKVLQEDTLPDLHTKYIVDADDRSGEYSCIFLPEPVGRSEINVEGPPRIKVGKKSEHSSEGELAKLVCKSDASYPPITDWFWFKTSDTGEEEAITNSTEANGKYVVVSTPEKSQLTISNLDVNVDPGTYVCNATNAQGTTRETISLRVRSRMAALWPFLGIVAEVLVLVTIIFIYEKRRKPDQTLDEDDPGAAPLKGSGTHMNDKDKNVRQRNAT
UniProt P07356: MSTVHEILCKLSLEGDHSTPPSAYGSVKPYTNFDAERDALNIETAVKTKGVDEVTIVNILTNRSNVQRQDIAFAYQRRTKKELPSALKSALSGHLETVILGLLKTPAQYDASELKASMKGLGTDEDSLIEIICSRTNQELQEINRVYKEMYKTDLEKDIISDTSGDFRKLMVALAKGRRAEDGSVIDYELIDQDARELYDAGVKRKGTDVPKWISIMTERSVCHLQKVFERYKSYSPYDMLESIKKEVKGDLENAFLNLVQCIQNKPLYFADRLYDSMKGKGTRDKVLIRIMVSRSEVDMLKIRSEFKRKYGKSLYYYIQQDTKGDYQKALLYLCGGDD

Results are given in words; binding and its absence hold for the method and conditions named. Binding seen in cells or lysates may run through a third protein. These calls come from enrichment with a bait or labelling near it, and not all partners need be listed.

Binding data for one substance are collected here from publication PMC7853129.

Consider Annexin A2 (from UniProt P07356 1-339), for which the binding entry is listed as “binds”.
